Measurements: the supplement of paper PMC9454738
Where a name gives a salt, the structure may show the parent alone. The list shows a part of the results. Single values are uncertain here, since repeats match poorly.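 Triple-negative MDA-MB-231 breast cancer cells and their brain-metastatic MDA-MB-231BRM derivative each stably expressed empty vector, full-length GLI1 or truncated tGLI1. CellTiter-Blue measured viability at 48 h relative to 1% DMSO vehicle. Compounds reducing viability 20% more in tGLI1 cells than in vector and GLI1 cells counted as tGLI1-selective.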

How the values were obtained:
Assay in all cases: cell viability relative to vehicle (DMSO) control (fraction); higher = more viable cells (less growth inhibition)
Settings in all cases: treatment time 48 h
MDA-MB-231 GLI1 = test system: MDA-MB-231 GLI1
MDA-MB-231 Vector = test system: MDA-MB-231 Vector
MDA-MB-231 tGLI1 = test system: MDA-MB-231 tGLI1
MDA-MB-231BRM GLI1 = test system: MDA-MB-231BRM GLI1
MDA-MB-231BRM Vector = test system: MDA-MB-231BRM Vector
MDA-MB-231BRM tGLI1 = test system: MDA-MB-231BRM tGLI1

| SMILES | cell viability (MDA-MB-231 GLI1; 0.05 µM) | cell viability (MDA-MB-231 GLI1; 0.5 µM) | cell viability (MDA-MB-231 GLI1; 5 µM) | cell viability (MDA-MB-231 Vector; 0.05 µM) | cell viability (MDA-MB-231 Vector; 0.5 µM) | cell viability (MDA-MB-231 Vector; 5 µM) | cell viability (MDA-MB-231 tGLI1; 0.05 µM) | cell viability (MDA-MB-231 tGLI1; 0.5 µM) | cell viability (MDA-MB-231 tGLI1; 5 µM) | cell viability (MDA-MB-231BRM GLI1; 0.05 µM) | cell viability (MDA-MB-231BRM GLI1; 0.5 µM) | cell viability (MDA-MB-231BRM GLI1; 5 µM) | cell viability (MDA-MB-231BRM Vector; 0.05 µM) | cell viability (MDA-MB-231BRM Vector; 0.5 µM) | cell viability (MDA-MB-231BRM Vector; 5 µM) | cell viability (MDA-MB-231BRM tGLI1; 0.05 µM) | cell viability (MDA-MB-231BRM tGLI1; 0.5 µM) | cell viability (MDA-MB-231BRM tGLI1; 5 µM) |
| --- | --- | --- | --- | --- | --- | --- | --- | --- | --- | --- | --- | --- | --- | --- | --- | --- | --- | --- |
| Cn1cc(C2=C(c3cn(C4CCN(Cc5ccccn5)CC4)c4ccccc34)C(=O)NC2=O)c2ccccc21 | 1.59 | 1.74 | 1.53 | 1.45 | 1.27 | 1.01 | 1.17 | 1.49 | 1.04 | 0.926 | 0.97 | 0.921 | 0.943 | 0.978 | 0.985 | 0.942 | 0.904 | 0.952 |
| CCN1CCN(C(=O)Cc2ccc(Nc3ncc(F)c(Nc4ccc(C(=O)Nc5ccccc5Cl)cc4)n3)cc2)CC1 [Aurora A Inhibitor I] | 1.18 | 1.01 | -0.246 | 2.26 | 0.982 | -0.139 | 0.971 | 0.897 | -0.177 | 1.15 | 1.06 | 0.581 | 1.13 | 0.963 | 0.566 | 0.987 | 1.06 | 0.607 |
| CC(C)(C)c1cc(C=C(C#N)C#N)cc(C(C)(C)C)c1O [Tyrphostin 9] | 0.716 | 0.916 | 0.133 | 0.745 | 0.966 | 0.316 | 0.772 | 0.883 | 0.223 | 1.21 | 0.993 | 0.822 | 1.22 | 1.05 | 0.769 | 1.09 | 0.95 | 0.699 |
| C/C(O)=C(\C#N)C(=O)Nc1cc(Br)ccc1Br | 2.26 | 3.13 | 2.06 | 1.42 | 1.29 | 1.32 | 1.29 | 1.43 | 1.41 | 0.783 | 0.823 | 0.649 | 0.922 | 0.792 | 0.707 | 1.22 | 1.07 | 1.16 |
| Cc1ccccc1-n1c(Cn2ncc3c(N)ncnc32)nc2cccc(C)c2c1=O | 1.08 | 0.98 | 1.18 | 1.69 | 1.22 | 1.05 | 0.894 | 1.09 | 0.962 | 1.12 | 1.03 | 0.846 | 1.06 | 1.03 | 0.685 | 0.989 | 1.09 | 0.983 |
| COc1ccc(N(C(=O)Oc2c(C)cccc2C)c2ccnc(Nc3ccc(N4CCN(C)CC4)cc3)n2)c(OC)c1 | 2.19 | 2.9 | 0.0531 | 1.46 | 1.36 | 0.0126 | 1.47 | 1.43 | -0.113 | 0.819 | 0.835 | 0.554 | 0.86 | 0.814 | 0.641 | 1.13 | 1.01 | 0.92 |
| CN[C@@H]1C[C@H]2O[C@@](C)([C@@H]1OC)n1c3ccccc3c3c4c(c5c6ccccc6n2c5c31)C(=O)NC4 [Staurosporine] | -0.0139 | -0.127 | -0.13 | -0.00682 | -0.0511 | -0.0599 | -0.0405 | -0.121 | -0.102 | 1.27 | 1.17 | 0.801 | 1.22 | 1.06 | 0.878 | 1.08 | 1.06 | 0.687 |
| N.N.[Cl][Pt][Cl] [Cisplatin] | 1.31 | 1.02 | 1.11 | 1.32 | 1.1 | 1.21 | 1.25 | 1.05 | 1.04 | 1.06 | 1.01 | 0.997 | 0.957 | 1.03 | 1.02 | 1.04 | 1.04 | 1.09 |
| C=C1C[C@@H]2[C@H](CC[C@]3(C)C(=O)CC[C@@H]23)[C@@]2(C)C=CC(=O)C=C12 [Exemestane] | 0.999 | 1.11 | 1.13 | 1.16 | 1.17 | 1.29 | 1.08 | 1.12 | 1.13 | 1.07 | 1.02 | 0.988 | 1.04 | 1.06 | 1 | 1.08 | 1.06 | 1.1 |
| Cn1c(CCCC(=O)O)nc2cc(N(CCCl)CCCl)ccc21 [Bendamustine HCL] | 0.931 | 0.993 | 1.07 | 0.99 | 1.11 | 1.19 | 1.02 | 1.12 | 1.05 | 0.978 | 1.01 | 0.968 | 0.991 | 0.939 | 0.962 | 0.966 | 0.989 | 1 |
| O=c1[nH]c2ccc(Cl)cc2c(N[C@@H]2CN3CCC2CC3)c1-c1nc2ccccc2[nH]1 | 0.824 | 0.413 | 0.00479 | 0.874 | 0.483 | 0.0444 | 0.999 | 0.427 | 0.0117 | 1.14 | 1.3 | 0.361 | 1.27 | 1.38 | 0.28 | 1.2 | 1.3 | 0.0506 |
| C[C@@H]1CC[C@H]2[C@@H](C)C(=O)O[C@@H]3O[C@@]4(C)CC[C@@H]1[C@]32OO4 [Artemisinin] | 1.15 | 1.07 | 1.04 | 0.899 | 0.841 | 0.908 | 1.18 | 0.996 | 0.916 | 1.09 | 1.07 | 1.07 | 1.04 | 1.04 | 1.03 | 1.07 | 1.01 | 1.03 |
| COc1ccc2c(c1)/C(=C/c1cnc[nH]1)C(=O)N2 | 1.22 | 1.85 | 0.847 | 0.785 | 0.716 | 0.377 | 0.729 | 0.772 | 0.514 | 0.62 | 0.488 | 0.444 | 0.602 | 0.477 | 0.397 | 0.746 | 0.674 | 0.602 |
| COc1ccc(C(=O)N2CCCC2=O)cc1 [Aniracetam] | 1.02 | 1.13 | 1.08 | 1.19 | 1.17 | 1.1 | 1.15 | 1.31 | 1.06 | 1.06 | 1.04 | 1.01 | 1.02 | 1.02 | 1.03 | 1.1 | 1.01 | 1.04 |
| COC[C@H]1OC(=O)c2coc3c2[C@@]1(C)C1=C(C3=O)[C@@H]2CCC(=O)[C@@]2(C)C[C@H]1OC(C)=O [Wortmannin] | 1.21 | 1.18 | 0.765 | 1.24 | 1.07 | 1.2 | 1.29 | 1.17 | 0.855 | 1.02 | 0.976 | 0.962 | 1.01 | 1.09 | 0.879 | 1.06 | 1.04 | 0.925 |
| CC(O)(CS(=O)(=O)c1ccc(F)cc1)C(=O)Nc1ccc(C#N)c(C(F)(F)F)c1 (stereo unspecified) [Bicalutamide (Casodex)] | 1.11 | 1.04 | 1.13 | 0.855 | 1.19 | 1.2 | 1.15 | 1.06 | 1.05 | 1.02 | 0.986 | 0.695 | 1.02 | 0.985 | 0.925 | 1.12 | 0.995 | 0.993 |
| CC(C)(C)c1cc(C=C(C#N)C#N)cc(Br)c1O | 1.17 | 1.18 | 1.48 | 1.4 | 1.04 | 1.23 | 1.06 | 1.22 | 1.27 | 1.07 | 1.07 | 0.897 | 1.17 | 1.07 | 0.933 | 1.01 | 1.09 | 0.874 |

Full records, quoted from the list. Order of values: cell viability (MDA-MB-231 GLI1; 0.05 µM)	cell viability (MDA-MB-231 GLI1; 0.5 µM)	cell viability (MDA-MB-231 GLI1; 5 µM)	cell viability (MDA-MB-231 Vector; 0.05 µM)	cell viability (MDA-MB-231 Vector; 0.5 µM)	cell viability (MDA-MB-231 Vector; 5 µM)	cell viability (MDA-MB-231 tGLI1; 0.05 µM)	cell viability (MDA-MB-231 tGLI1; 0.5 µM)	cell viability (MDA-MB-231 tGLI1; 5 µM)	cell viability (MDA-MB-231BRM GLI1; 0.05 µM)	cell viability (MDA-MB-231BRM GLI1; 0.5 µM)	cell viability (MDA-MB-231BRM GLI1; 5 µM)	cell viability (MDA-MB-231BRM Vector; 0.05 µM)	cell viability (MDA-MB-231BRM Vector; 0.5 µM)	cell viability (MDA-MB-231BRM Vector; 5 µM)	cell viability (MDA-MB-231BRM tGLI1; 0.05 µM)	cell viability (MDA-MB-231BRM tGLI1; 0.5 µM)	cell viability (MDA-MB-231BRM tGLI1; 5 µM)
CCN1CCN(C(=O)Cc2ccc(Nc3ncc(F)c(Nc4ccc(C(=O)Nc5ccccc5Cl)cc4)n3)cc2)CC1 [Aurora A Inhibitor I] as listed: 1.18	1.01	-0.246	2.26	0.982	-0.139	0.971	0.897	-0.177	1.15	1.06	0.581	1.13	0.963	0.566	0.987	1.06	0.607
COc1ccc2c(c1)/C(=C/c1cnc[nH]1)C(=O)N2 as listed: 1.22	1.85	0.847	0.785	0.716	0.377	0.729	0.772	0.514	0.62	0.488	0.444	0.602	0.477	0.397	0.746	0.674	0.602
